Data published in paper doi:10.1101/262477 (bioRxiv, 2018).
Results are given in words; binding and its absence hold for the method and conditions named. Some results given as binding are weak or reduced against the parent protein; the word gives no strength.

Protein sequences, listed by entry. Tags and fused reporters are not part of them. Lines headed by an entry give the natural chain unless they say otherwise; changes in a name come on top. Residues count along the entry.
UniProt Q9HD34, whole entry: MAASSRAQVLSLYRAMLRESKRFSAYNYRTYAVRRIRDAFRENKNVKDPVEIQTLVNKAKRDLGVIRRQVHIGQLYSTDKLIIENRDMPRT
UniProt Q9Y697, 56-457, stated change not applied: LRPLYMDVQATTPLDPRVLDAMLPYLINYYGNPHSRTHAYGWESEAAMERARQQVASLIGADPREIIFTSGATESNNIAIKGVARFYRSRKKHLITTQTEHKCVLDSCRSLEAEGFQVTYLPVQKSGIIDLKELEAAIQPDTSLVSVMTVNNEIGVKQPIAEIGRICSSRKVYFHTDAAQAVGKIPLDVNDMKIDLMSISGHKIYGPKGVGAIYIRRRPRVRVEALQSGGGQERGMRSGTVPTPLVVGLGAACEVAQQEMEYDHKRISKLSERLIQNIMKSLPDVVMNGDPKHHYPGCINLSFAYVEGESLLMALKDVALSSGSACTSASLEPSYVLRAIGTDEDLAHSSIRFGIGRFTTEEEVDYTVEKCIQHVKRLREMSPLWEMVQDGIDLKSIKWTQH

What was measured:
[1] = biological target: human His-tagged ISD11 (human) (UniProt Q9HD34); assay: co-purification
[2] = biological target: NFS1-ISD11 complex (SD) with His-tagged ISD11, as co-expressed and captured on Ni resin (human) (UniProt Q9Y697); assay: co-purification

Substance	binding [1]	binding [2]
human NFS1 (Δ1-55), non-tagged (from UniProt Q9Y697 56-457) (enzyme)	binds	
bacterial acyl-carrier protein (ACP) from the host expression organism E. coli (from UniProt P0A6A8 1-78)		binds
